According to patent US12565485B2, “Solid forms of 1-((S)-4-((R)-7-(6-amino-4-methyl-3-(trifluoromethyl)pyridin-2-yl)-6-chloro-8-fluoro-2-(((s)-1-methylpyrrolidin-2-yl)methoxy)quinazolin-4-yl)-3-methylpiperazin-1-yl)prop-2-en-1-one” (Genentech, Inc., priority 2022, dated 2026):
Some of these results come from one statement about several compounds together.

Experiment: VH-XRPD analysis / transitions of forms at varying relative humidity
Format: physicochemical
Details: 25° C.
Text: FIG. 19. The sample then reverts to the original form upon reaching 30% RH. […] Transitions of Forms of Compound A at varying RH.

SMILES	RH range of the majority of water uptake
C=CC(=O)N1CCN(c2nc(OC[C@@H]3CCCN3C)nc3c(F)c(-c4nc(N)cc(C)c4C(F)(F)F)c(Cl)cc23)[C@@H](C)C1 [Compound A Form C]	40-50 % RH
C=CC(=O)N1CCN(c2nc(OC[C@@H]3CCCN3C)nc3c(F)c(-c4nc(N)cc(C)c4C(F)(F)F)c(Cl)cc23)[C@@H](C)C1 [Compound A Form A]	40-50 % RH
